PubChem BioAssay AID1224826 | NIAID, 2016

Screen: 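Genes that change LPS-induced Tnf promoter activity in mouse macrophages when knocked down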 (primary screen)
Cell system: RAW264.7 G9 macrophages from mouse bearing reporters for p65 (GFP) and the Tnf promoter (mCherry)
Reagent: siRNA pool against mouse genes, 100 nM
Timing: 16 h of LPS stimulation, after 2 days of siRNA transfection
Challenge: bacterial lipopolysaccharide (Salmonella minnesota R595), 10 ng/ml
Measured: 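Imaged Tnf reporter mCherry in nuclei, minus background, normalised per plate to the median and expressed as robust z-scores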
Reading the numbers: Tnf reporter robust z-score: higher = stronger Tnf promoter reporter signal after LPS; Tnf reporter intensity: higher = stronger Tnf promoter reporter signal
Hit rule: 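a well counts as active at a score of -1.3 or below (Tlr4 knock-down control median) or above 3 (raised signal); controls and wells holding fewer than 50 cells are excluded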
Meaning of the calls: active = Tnf reporter clearly lowered or raised; inactive = no clear change in Tnf reporter
In all, the deposit lists about 17,000 reagents; shown is a random part of them. About 1,110 of all reagents (6.6%) were called active. 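Active means lowered or raised reporter signal; replicate intensities are raw and not normalised per plate.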 Entries without a mark were called inactive. Not all columns of the deposit are shown. Reagent sequences are not shown.

Tnf reporter robust z-score | fewer than 50 cells in well | Tnf reporter intensity, replicate 1 | target
0 | enough cells in well | 291 | Mgp (GeneID 17313)
0.21 | enough cells in well | 197 | Kif6 (GeneID 319991)
-0.92 | enough cells in well | 102 | Arhgef6 (GeneID 73341)
0.44 | enough cells in well | 231 | Tmem117 (GeneID 320709)
– | fewer than 50 cells per well; well left out of calls | 105 | Tbc1d4 (GeneID 210789)
1.22 | enough cells in well | 209 | Nalf1 (GeneID 270028)
-0.11 | enough cells in well | 270 | Myod1 (GeneID 17927)
-0.17 | enough cells in well | 240 | Ska3 (GeneID 219114)
-1.55 (active) | enough cells in well | 92.5 | Lhfpl4 (GeneID 269788)
0.67 | enough cells in well | 306 | Izumo1r (GeneID 64931)
0.64 | enough cells in well | 263 | Esam (GeneID 69524)
-0.99 | enough cells in well | 140 | Leng9 (GeneID 243813)
-0.3 | enough cells in well | 151 | Arsa (GeneID 11883)
0.02 | enough cells in well | 137 | Pgbd5 (GeneID 209966)
-0.92 | enough cells in well | 215 | Flii (GeneID 14248)
-1.09 | enough cells in well | 109 | Tmem184c (GeneID 234463)
0.87 | enough cells in well | 201 | Nagk (GeneID 56174)
0.22 | enough cells in well | 198 | Or4c104 (GeneID 258450)
-1.1 | enough cells in well | 117 | Mfap3l (GeneID 71306)
-0.38 | enough cells in well | 134 | Ankrd54 (GeneID 223690)
1.16 | enough cells in well | 215 | A730045E13Rik (GeneID 208924)
0.91 | enough cells in well | 311 | Engase (GeneID 217364)
1.06 | enough cells in well | 382 | Scnn1g (GeneID 20278)
-0.81 | enough cells in well | 142 | Map4k3 (GeneID 225028)
0.44 | enough cells in well | 228 | Htr5b (GeneID 15564)
-0.97 | enough cells in well | 104 | Brd3 (GeneID 67382)
0.56 | enough cells in well | 259 | Dnajb9 (GeneID 27362)

7 entries from above, set out differently:
Tnf reporter robust z-score	fewer than 50 cells in well	Tnf reporter intensity, replicate 1	target
0.02	enough cells in well	137	Pgbd5 (GeneID 209966)
-0.92	enough cells in well	215	Flii (GeneID 14248)
-1.09	enough cells in well	109	Tmem184c (GeneID 234463)
0.87	enough cells in well	201	Nagk (GeneID 56174)
0.22	enough cells in well	198	Or4c104 (GeneID 258450)
-1.1	enough cells in well	117	Mfap3l (GeneID 71306)
-0.38	enough cells in well	134	Ankrd54 (GeneID 223690)

Next records:
Tnf reporter robust z-score | fewer than 50 cells in well | Tnf reporter intensity, replicate 1 | target
0.53 | enough cells in well | 310 | Drc4 (GeneID 104346)
-0.3 | enough cells in well | 129 | Aadacl2fm1 (GeneID 229333)
0.3 | enough cells in well | 204 | Tet3 (GeneID 194388)
-0.78 | enough cells in well | 277 | Npy4r (GeneID 19065)
-1.18 | enough cells in well | 122 | Zc3h12a (GeneID 230738)
0.1 | enough cells in well | 145 | Sdr9c7 (GeneID 70061)
0.24 | enough cells in well | 234 | Gpsm3 (GeneID 106512)
0.15 | enough cells in well | 250 | Ube2e1 (GeneID 22194)
0.04 | enough cells in well | 245 | Col4a1 (GeneID 12826)
0.16 | enough cells in well | 244 | Tcf7 (GeneID 21414)
2.14 | enough cells in well | 276 | Gtf2ird2 (GeneID 114674)
0.7 | enough cells in well | 171 | Taf4b (GeneID 72504)
-0.22 | enough cells in well | 212 | Ubl4a (GeneID 27643)
-0.89 | enough cells in well | 129 | Adamts15 (GeneID 235130)
– | fewer than 50 cells per well; well left out of calls | 42.9 | Slc35f5 (GeneID 74150)
0.13 | enough cells in well | 229 | Ehd1 (GeneID 13660)
– | fewer than 50 cells per well; well left out of calls | 88.5 | Sgsm3 (GeneID 105835)
0.4 | enough cells in well | 115 | Trpm3 (GeneID 226025)
0.13 | enough cells in well | 231 | B9d1 (GeneID 27078)
2.97 | enough cells in well | 209 | Stc2 (GeneID 20856)
0.21 | enough cells in well | 301 | Hrnr (GeneID 68723)
-0.73 | enough cells in well | 92 | Bcl2a1d (GeneID 12047)
-0.26 | enough cells in well | 99.5 | Slc10a3 (GeneID 214601)
-0.56 | enough cells in well | 155 | Fam131b (GeneID 76156)
1.41 | enough cells in well | 238 | Pcdhga12 (GeneID 93724)
0.15 | enough cells in well | 121 | Vmn1r18 (GeneID 171199)
-0.31 | enough cells in well | 184 | Yap1 (GeneID 22601)
0.44 | enough cells in well | 210 | Xkr6 (GeneID 219149)
-1.29 | enough cells in well | 129 | Hoxa2 (GeneID 15399)
-0.84 | enough cells in well | 176 | Phospho1 (GeneID 237928)
0.17 | enough cells in well | 249 | Cul1 (GeneID 26965)
